These are yes or no findings as the source states them, for the method shown. Binding seen in cells or lysates may run through a third protein. These calls come from enrichment with a bait or labelling near it, and not all partners need be listed. Tags and fused reporters may be left off the sequences shown.

T1: murine EpCAM in fusion with yellow fluorescent protein (YFP) at the C-terminus, in mF9 cells (murine) (UniProt Q99JW5)
T1 sequence: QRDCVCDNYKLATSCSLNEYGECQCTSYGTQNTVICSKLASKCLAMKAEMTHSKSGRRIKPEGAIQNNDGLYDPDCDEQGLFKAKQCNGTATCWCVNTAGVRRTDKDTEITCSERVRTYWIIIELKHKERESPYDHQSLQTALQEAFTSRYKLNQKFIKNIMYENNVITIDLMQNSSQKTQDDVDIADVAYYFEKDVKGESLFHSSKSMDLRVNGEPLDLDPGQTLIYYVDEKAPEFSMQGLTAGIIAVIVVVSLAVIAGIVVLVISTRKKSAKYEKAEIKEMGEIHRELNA

B1: CDGSH iron-sulfur domain-containing protein 2 (protein, UniProt Q9CQB5 1-135)
chain: MVLDSVARIVKVQLPAYLKQLPVPDSITGFARLTVSDWLRLLPFLGVLALLGYLAVRPFFPKKKQQKDSLINLKIQKENPKVVNEINIEDLCLTKAAYCRCWRSKTFPACDGSHNKHNELTGDNVGPLILKKKEV
B2: Embryonic Ras (protein, UniProt Q7TN89 1-227)
chain: MALPTKSSILDLSSGTPCTRSPEESHEAWAQCKDAGRQLPEYKAVVVGASGVGKSALTIQMTHQCFVKDHDPTIQDSYWKEVARDNGGYILNVLDTSGQDIHRALRDQCLASGDGVLGVFALDDPSSLDQLQQIWSTWTPHHKQPLVLVGNKCDLVTTAGDAHAAAALLAHKLGAPLVKTSAKTRQGVEEAFALLVHEIQRAQEAVAESSKKTRHQKAVCSCGCSVA
B3: Ras-related protein Rab-5c (protein, UniProt P35278 1-216)
chain: MAGRGGAARPNGPAAGNKICQFKLVLLGESAVGKSSLVLRFVKGQFHEYQESTIGAAFLTQTVCLDDTTVKFEIWDTAGQERYHSLAPMYYRGAQAAIVVYDITNTDTFARAKNWVKELQRQASPNIVIALAGNKADLASKRAVEFQEAQAYADDNSLLFMETSAKTAMNVNEIFMAIAKKLPKNEPQNAAGAPGRTRGVDLQESNPASRSQCCSN
B4: Ras-related protein Ral-a (protein, UniProt P63321 1-206)
chain: MAANKPKGQNSLALHKVIMVGSGGVGKSALTLQFMYDEFVEDYEPTKADSYRKKVVLDGEEVQIDILDTAGQEDYAAIRDNYFRSGEGFLCVFSITEMESFAATADFREQILRVKEDENVPFLLVGNKSDLEDKRQVSVEEAKNRADQWNVNYVETSAKTRANVDKVFFDLMREIRARKMEDSKEKNGKKKRKSLAKRIRERCCIL
B5: ATP synthase, H+ transporting, mitochondrial F1 complex, delta subunit, isoform CRA_c (protein, UniProt Q9D3D9 23-168)
chain: AEAAAAPAPAAGPGQMSFTFASPTQVFFDSANVKQVDVPTLTGAFGILASHVPTLQVLRPGLVVVHTEDGTTTKYFVSSGSVTVNADSSVQLLAEEAVTLDMLDLGAARANLEKAQSELSGAADEAARAEIQIRIEANEALVKALE
B6: Calnexin (protein, UniProt P35564 21-591)
chain: HDGHDDDAIDIEDDLDDVIEEVEDSKSKSDASTPPSPKVTYKAPVPTGEVYFADSFDRGSLSGWILSKAKKDDTDDEIAKYDGKWEVDEMKETKLPGDKGLVLMSRAKHHAISAKLNKPFLFDTKPLIVQYEVNFQNGIECGGAYVKLLSKTAELSLDQFHDKTPYTIMFGPDKCGEDYKLHFIFRHKNPKTGVYEEKHAKRPDADLKTYFTDKKTHLYTLILNPDNSFEILVDQSVVNSGNLLNDMTPPVNPSREIEDPEDRKPEDWDERPKIADPDAVKPDDWDEDAPSKIPDEEATKPEGWLDDEPEYIPDPDAEKPEDWDEDMDGEWEAPQIANPKCESAPGCGVWQRPMIDNPNYKGKWKPPMIDNPNYQGIWKPRKIPNPDFFEDLEPFKMTPFSAIGLELWSMTSDIFFDNFIISGDRRVVDDWANDGWGLKKAADGAAEPGVVLQMLEAAEERPWLWVVYILTVALPVFLVILFCCSGKKQSNAMEYKKTDAPQPDVKDEEGKEEEKNKRDEEEEEEKLEEKQKSDAEEDGVTGSQDEEDSKPKAEEDEILNRSPRNRKPRRE
B7: Solute carrier family 2, facilitated glucose transporter member 1 (protein, UniProt P17809 1-492)
chain: MDPSSKKVTGRLMLAVGGAVLGSLQFGYNTGVINAPQKVIEEFYNQTWNHRYGEPIPSTTLTTLWSLSVAIFSVGGMIGSFSVGLFVNRFGRRNSMLMMNLLAFVAAVLMGFSKLGKSFEMLILGRFIIGVYCGLTTGFVPMYVGEVSPTALRGALGTLHQLGIVVGILIAQVFGLDSIMGNADLWPLLLSVIFIPALLQCILLPFCPESPRFLLINRNEENRAKSVLKKLRGTADVTRDLQEMKEEGRQMMREKKVTILELFRSPAYRQPILIAVVLQLSQQLSGINAVFYYSTSIFEKAGVQQPVYATIGSGIVNTAFTVVSLFVVERAGRRTLHLIGLAGMAGCAVLMTIALALLERLPWMSYLSIVAIFGFVAFFEVGPGPIPWFIVAELFSQGPRPAAIAVAGFSNWTSNFIVGMCFQYVEQLCGPYVFIIFTVLLVLFFIFTYFKVPETKGRTFDEIASGFRQGGASQSDKTPEELFHPLGADSQV
B8: Exportin-5 (protein, UniProt Q924C1-1 1-1204)
chain: MEMEQVNALCEELVKAVTVMMDPSSTQRYRLEALKFCEEFKEKCPICVPCGLKLAEKTQIAIVRHFGLQILEHVVKFRWNSMSRLEKVYLKNSVMELIANGTLRILEEENHIKDVLSRIVVEMIKREWPQHWPDMLMELDTLFRQGETQRELVMFILLRLAEDVVTFQTLPTQRRRDIQQTLTQNMERILNFLLNTLQENVNKYQQMKTDSSQEAEAQANCRVSVAALNTLAGYIDWVSLNHITAENCKLVETLCLLLNEQELQLGAAECLLIAVSRKGKLEDRKRLMILFGDVAMHYILSAAQTADGGGLVEKHYLFLKRLCQVLCALGNLLCALLALDANIQTPINFGMYLESFLAFTTHPSQFLRSSTHMTWGALFRHEVLSRDPALLAVIPKYLRASMTNLVKMGFPSKTDSPSCEYSRFDFDSDEDFNAFFNSSRAQHGEVVRCVCRLDPKTSFQMAAEWLKYQLSASIDTGPVNSCSTAGTGEGGFCSIFSPSYVQWEAMTFFLESVINQMFRTLDKEELPVSDGIELLQLVLNFEIKDPLVLSCVLTNVSALFPFVTYKPAFLPQVFSKLFSFVTFESVGESKAPRTRAVRNVRRHACSSINKMCRDYPDLVLPNFDMLYSHVKQLLSNELLLTQMEKCALMEALVLVSNQFKDYERQKLFLEELMAPVVNIWLSEEMCRALSDIDSFIAYVGADLKSCDPAVEDPCGLNRARMSFCVYSILGVMRRTSWPSDLEEAKAGGFVVGYTPSGNPIFRNPCTEQILRLLDNLLALVRTHNTLYTPEMLTKMAEPFTKALDIVESEKTAILGLPQPLLEFNDHPVYRTTLERMQRFFGILYENCYHILGKAGPSMQQDFYTVEDLASQLLGSAFVNLNNIPDFRLRSMLRVFVKPLVLFCPSEHYETLISPILGPLFTYLHMRLSQKWHVINQRSILCGEDEIAEDNPESQEMLEEQLVRMLTREAMDLIMACCVSKKTADHTAAPTADGDDEEMMATEVAPSSVVELTDLGKCLMKHEDVCTALLITAFNSLTWKDTLSCQRATTQLCWPLLKQVMSGTLLADAVTWLFTSVLKGLQMHGQHDGCMASLVHLAFQIYEALRPRYLEIRAVMEQIPEINKESLDQFDCKLLNPSLQKAADKRRKDHFKRLIAGCIGKPLGEQFRKEVHIKNLPWLFKKPKPMLETEVLDSEEGGLATIFEP
B9: Ras-related protein Rab-5a (protein, UniProt Q9CQD1 1-215)
chain: MANRGATRPNGPNTGNKICQFKLVLLGESAVGKSSLVLRFVKGQFHEFQESTIGAAFLTQTVCLDDTTVKFEIWDTAGQERYHSLAPMYYRGAQAAIVVYDITNEESFARAKNWVKELQRQASPNIVIALSGNKADLANKRAVDFQEAQSYADDNSLLFMETSAKTSMNVNEIFMAIAKKLPKNEPQNPGANSARGRGVDLTEPAQPARSQCCSN
B10: Thioredoxin-related transmembrane protein 1 (protein, UniProt Q8VBT0 27-278)
chain: RRNNVRVLTDENWTSLLEGEWMIEFYAPWCPACQNLQPEWESFAEWGEDLEVKVAKVDVTEQTGLSGRFIITALPSIYHCKDGEFRRYVGPRTKKDFINFVSDKEWKNIEPISSWFGPSSVLMTMMSALFQLSVYIRTSHSYFVHDLGIPAWGSYLVFAFATVLSGLLLGLCMIFVADCLCPSKRRKPQQQYAKKTSPEFSQPLKKVEEEQEADEEDVSEEEAEDREGASKATSQSSIRQRCVGLPSATDTS
B11: Catenin delta-1 (protein, UniProt P30999 1-938)
chain: MDDSEVESTASILASVKEQEAQFEKLTRALEEERRHVSAQLERVRVSPQDANSLMANGTLTRRHQNGRFVGDADLERQKFSDLKLNGPQDHNHLLYSTIPRMQEPGQIVETYTEEDPEGAMSVVSVETTDDGTTRRTETTVKKVVKTMTTRTVQPVPMGPDGLPVDASAVSNNYIQTLGRDFRKNGNGGPGPYVGQAGTATLPRNFHYPPDGYGRHYEDGYPGGSDNYGSLSRVTRIEERYRPSMEGYRAPSRQDVYGPQPQVRVGGSSVDLHRFHPEPYGLEDDQRSMGYDDLDYGMMSDYGTARRTGTPSDPRRRLRSYEDMIGEEVPPDQYYWAPLAQHERGSLASLDSLRKGMPPPSNWRQPELPEVIAMLGFRLDAVKSNAAAYLQHLCYRNDKVKTDVRKLKGIPILVGLLDHPKKEVHLGACGALKNISFGRDQDNKIAIKNCDGVPALVRLLRKARDMDLTEVITGTLWNLSSHDSIKMEIVDHALHALTDEVIIPHSGWEREPNEDCKPRHIEWESVLTNTAGCLRNVSSERSEARRKLRECDGLVDALIFIVQAEIGQKDSDSKLVENCVCLLRNLSYQVHREIPQAERYQEALPTVANSTGPHAASCFGAKKGKDEWFSRGKKPTEDPANDTVDFPKRTSPARGYELLFQPEVVRIYISLLKESKTPAILEASAGAIQNLCAGRWTYGRYIRSALRQEKALSAIAELLTSEHERVVKAASGALRNLAVDARNKELIGKHAIPNLVKNLPGGQQNSSWNFSEDTVVSILNTINEVIAENLEAAKKLRETQGIEKLVLINKSGNRSEKEVRAAALVLQTIWGYKELRKPLEKEGWKKSDFQVNLNNASRSQSSHSYDDSTLPLIDRNQKSDKKPDREEIPMSNMGSNTKSLDNNYSTLNERGDHNRTLDRSGDLGDMEPLKGAPLMQKI
B12: Solute carrier family 2, facilitated glucose transporter member 3 (protein, UniProt P32037 1-493)
chain: MGTTKVTPSLVFAVTVATIGSFQFGYNTGVINAPETILKDFLNYTLEERLEDLPSEGLLTALWSLCVAIFSVGGMIGSFSVGLFVNRFGRRNSMLLVNLLAIIAGCLMGFAKIAESVEMLILGRLLIGIFCGLCTGFVPMYIGEVSPTALRGAFGTLNQLGIVVGILVAQIFGLDFILGSEELWPGLLGLTIIPAILQSAALPFCPESPRFLLINKKEEDQATEILQRLWGTSDVVQEIQEMKDESVRMSQEKQVTVLELFRSPNYVQPLLISIVLQLSQQLSGINAVFYYSTGIFKDAGVQEPIYATIGAGVVNTIFTVVSLFLVERAGRRTLHMIGLGGMAVCSVFMTISLLLKDDYEAMSFVCIVAILIYVAFFEIGPGPIPWFIVAELFSQGPRPAAIAVAGCCNWTSNFLVGMLFPSAAAYLGAYVFIIFAAFLIFFLIFTFFKVPETKGRTFEDIARAFEGQAHSGKGPAGVELNSMQPVKETPGNA

The assay deals with T1, murine EpCAM in fusion with yellow fluorescent protein (YFP) at the C-terminus, in mF9 cells (murine). The assay is described as follows: affinity purification with mass spectrometry; SILAC: whole cell lysates of mF9 cells stably expressing EpCAM-YFP (heavy, Lys-8/Arg-10) or YFP (light); 3 or 7 mg lysate with 30 μL GFP-Trap agarose beads, 3 hrs, 4°C; washed in 0.2% tween in PBS; LC-MS/MS; three biological repeats; hits: enriched >3-fold over YFP, p ≤ 0.05, at least 2 unique peptides.
B1: the binding result is recorded as “binds”.
For B2 the value was “binds”.
With B3, the binding entry is “binds”.
With B4, the binding entry is on record as “binds”.
For B5 the value was “binds”.
On to B6, for which the binding entry is given as “binds”.
On to B7, for which the binding result was “binds”.
In the case of B8, the binding entry was “binds”.
Regarding B9, the binding result is “binds”.
As for B10, the binding entry is recorded as “binds”.
Under B11 stands “binds”; under B12, “binds”.

The values are drawn from publication PMC8517208.
